Measured values from PMC11900227.
These are yes or no findings as the source states them, for the method shown. For some assays here: Binding seen in cells or lysates may run through a third protein. Some binding calls cover weakened binding; strength is not graded here. Sequences can lack the tags named with a protein.

The chains behind the UniProt entries cited, without tags or fusion partners.
UniProt Q39026: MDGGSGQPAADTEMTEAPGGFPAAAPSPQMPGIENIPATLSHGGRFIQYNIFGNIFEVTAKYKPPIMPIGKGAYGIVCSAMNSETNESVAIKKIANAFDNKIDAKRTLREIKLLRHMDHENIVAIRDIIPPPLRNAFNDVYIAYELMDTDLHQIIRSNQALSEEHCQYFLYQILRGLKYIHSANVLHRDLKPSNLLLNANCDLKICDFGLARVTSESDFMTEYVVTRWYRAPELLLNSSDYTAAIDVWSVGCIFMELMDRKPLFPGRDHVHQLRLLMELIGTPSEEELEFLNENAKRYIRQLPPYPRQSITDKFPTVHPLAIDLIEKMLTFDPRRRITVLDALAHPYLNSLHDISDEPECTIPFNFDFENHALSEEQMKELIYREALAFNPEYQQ

T1: TIR1-Myc (Arabidopsis thaliana) (UniProt Q570C0)
T1 sequence: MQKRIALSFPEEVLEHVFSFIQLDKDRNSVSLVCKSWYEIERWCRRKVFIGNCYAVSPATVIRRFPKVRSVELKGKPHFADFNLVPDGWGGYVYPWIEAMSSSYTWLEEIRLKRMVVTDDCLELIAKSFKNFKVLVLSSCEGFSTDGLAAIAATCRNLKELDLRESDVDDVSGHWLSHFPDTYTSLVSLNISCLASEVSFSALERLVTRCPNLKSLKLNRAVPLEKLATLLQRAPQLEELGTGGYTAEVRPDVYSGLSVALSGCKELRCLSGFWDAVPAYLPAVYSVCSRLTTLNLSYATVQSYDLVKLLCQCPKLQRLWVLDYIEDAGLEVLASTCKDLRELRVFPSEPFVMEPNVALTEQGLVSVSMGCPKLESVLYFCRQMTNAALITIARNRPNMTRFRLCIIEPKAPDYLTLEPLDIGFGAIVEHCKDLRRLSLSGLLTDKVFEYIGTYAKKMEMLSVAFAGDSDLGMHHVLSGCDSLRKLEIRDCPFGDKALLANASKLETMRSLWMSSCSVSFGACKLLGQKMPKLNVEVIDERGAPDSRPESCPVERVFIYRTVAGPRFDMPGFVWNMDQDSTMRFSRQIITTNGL

T2: IAA16-Myc (Arabidopsis thaliana) (UniProt O24407)
T2 sequence: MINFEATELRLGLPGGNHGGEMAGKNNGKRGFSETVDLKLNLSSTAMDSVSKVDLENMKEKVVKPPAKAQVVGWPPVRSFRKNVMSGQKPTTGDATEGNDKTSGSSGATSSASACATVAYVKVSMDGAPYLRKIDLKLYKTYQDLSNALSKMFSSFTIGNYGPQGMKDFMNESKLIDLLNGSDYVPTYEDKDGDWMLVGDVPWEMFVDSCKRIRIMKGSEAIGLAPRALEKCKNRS

T3: IAA16, yeast two-hybrid fusion (Arabidopsis thaliana) (UniProt O24407)
T3 sequence: T2 sequence

T4: transport inhibitor response 1 (TIR1), yeast two-hybrid fusion (Arabidopsis thaliana) (UniProt Q570C0)
T4 sequence: T1 sequence

T5: IAA32, yeast two-hybrid fusion (Arabidopsis thaliana) (UniProt Q8RYC6)
T5 sequence: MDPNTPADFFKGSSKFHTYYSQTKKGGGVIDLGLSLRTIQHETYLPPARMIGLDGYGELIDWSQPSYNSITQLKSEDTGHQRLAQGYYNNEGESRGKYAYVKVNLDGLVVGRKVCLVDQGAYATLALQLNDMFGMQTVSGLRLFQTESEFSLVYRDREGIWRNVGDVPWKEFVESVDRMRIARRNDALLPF

T6: IAA34, yeast two-hybrid fusion (Arabidopsis thaliana) (UniProt Q9C5X0)
T6 sequence: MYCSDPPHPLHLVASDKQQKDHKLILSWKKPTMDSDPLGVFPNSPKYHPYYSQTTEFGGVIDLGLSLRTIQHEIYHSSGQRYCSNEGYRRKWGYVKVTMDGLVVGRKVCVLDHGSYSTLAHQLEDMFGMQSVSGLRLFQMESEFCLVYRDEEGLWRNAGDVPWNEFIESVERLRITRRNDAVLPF

T7: TIR1-YFP^C (Arabidopsis thaliana) (UniProt Q570C0)
T7 sequence: T1 sequence

B1: mitogen-activated protein kinase 3 (MPK3), yeast two-hybrid fusion (enzyme, UniProt Q39023 1-370)
chain: MNTGGGQYTDFPAVETHGGQFISYDIFGSLFEITSKYRPPIIPIGRGAYGIVCSVLDTETNELVAMKKIANAFDNHMDAKRTLREIKLLRHLDHENIIAIRDVVPPPLRRQFSDVYISTELMDTDLHQIIRSNQSLSEEHCQYFLYQLLRGLKYIHSANIIHRDLKPSNLLLNANCDLKICDFGLARPTSENDFMTEYVVTRWYRAPELLLNSSDYTAAIDVWSVGCIFMELMNRKPLFPGKDHVHQMRLLTELLGTPTESDLGFTHNEDAKRYIRQLPNFPRQPLAKLFSHVNPMAIDLVDRMLTFDPNRRITVEQALNHQYLAKLHDPNDEPICQKPFSFEFEQQPLDEEQIKEMIYQEAIALNPTYG
B2: MPK3-YFP^N (enzyme, UniProt Q39023 1-370)
chain: B1 chain
B3: MPK3-GFP (enzyme, UniProt Q39023 1-370)
chain: B1 chain

Tests used:
[1] = target: T1, TIR1-Myc (Arabidopsis thaliana); test: co-IP; Arabidopsis mesophyll protoplasts co-transfected; anti-Myc antibody immunoprecipitates IAA16-Myc or TIR1-Myc, anti-GFP antibody detects MPK3-GFP or MPK6-GFP
[2] = target: T2, IAA16-Myc (Arabidopsis thaliana); test: as above
[3] = target: T3, IAA16, yeast two-hybrid fusion (Arabidopsis thaliana); test: two-hybrid; Matchmaker Gold (GAL4 based), pGBKT7 and pGADT7 in yeast strain AH109; growth on SD medium without Leu, Trp, His and Ade for 2 to 3 days, 30 °C
[4] = target: T4, transport inhibitor response 1 (TIR1), yeast two-hybrid fusion (Arabidopsis thaliana); test: as above
[5] = target: T5, IAA32, yeast two-hybrid fusion (Arabidopsis thaliana); test: as above
[6] = target: T6, IAA34, yeast two-hybrid fusion (Arabidopsis thaliana); test: as above
[7] = target: T7, TIR1-YFP^C (Arabidopsis thaliana); test: split reporter; BiFC in Arabidopsis mesophyll protoplasts; MPK3/6-YFP^N with TIR1- or IAAs-YFP^C, 25 °C for 12 h in the dark, confocal microscopy

Molecule | binding [1] | binding [2] | binding [3] | binding [4] | binding [5] | binding [6] | binding [7]
MPK6-GFP (from UniProt Q39026 1-395) (enzyme) | binds | binds |  |  |  |  | 
mitogen-activated protein kinase 6 (MPK6), yeast two-hybrid fusion (from UniProt Q39026 1-395) (enzyme) |  |  | binds | binds | binds | binds | 
MPK6-YFP^N (from UniProt Q39026 1-395) (enzyme) |  |  |  |  |  |  | binds
B1 |  |  | binds | binds | binds | binds | 
B2 |  |  |  |  |  |  | binds
B3 | binds | binds |  |  |  |  | 
